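Luminescence from an EWS-FLI1 target-promoter (NR0B1) reporter, set against a CMV-promoter reporter, two days after silencing single genes in TC32 Ewing sarcoma cells. Each siRNA was applied at 20 nM. A z-score of the log NR0B1-over-CMV signal, less the median of siRNAs with the same seed; more negative means a stronger specific loss of the NR0B1 reporter.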

The strongest results of the screen are mostly left out here. Sequences are the guide (antisense) strand, without overhang.

Sequence,gene,seed-corrected z-score
AGAGUGAUAGCUGAAGGUC,ZNF80,0.8666
AAGGUCACAAUCUCACAGG,FAM19A5,0.7224
UUGUUGUCUUUUAACAUUC,CLINT1,0.1306
AUUGUUAAAUACCAGUUGC,ZDHHC19,0.6938
UCUGCUAUCGAUGACGUGC,FRMD8,0.4401
UAUGCGUCUAUGAAGGGCA,UPB1,0.2854
UUAAGGACCAGGUGAUUCC,SHANK2,1.65
UUCAUGUCGUUUAUUGUCU,RP9,0.009977
UUGGUGGAGACGUAGAGGG,PROKR2,-0.01458
UGAGUUUAAAGUCAUACUU,ITPRIPL1,0.03054
AACUGGAUUAUGUAAGUGC,LOC440981,-1.471
AUGUUUAUAAUGUUCUGCC,BTG1,-1.328
AACUUUGAUUGUUCCAUUG,RAB31,-0.03663
UUAGGGAUCUCAUCUGCGG,SORBS3,0.01109
UUUAUUCCUCUCACCGACC,LSAMP,-0.0949
ACAGUAUUUGCGAAGAUCU,KRT18,1.021
AUCAUAAACACGGACCUGG,WDR74,-0.1418
UGAUGUUAAAGAGCUCGUC,DCLK3,-1.04
UGGAUUUGAACUUAAAUCU,SLC25A48,0.9713
UAGUGUAUCACAGGCAUCA,NEU1,-0.1155
AUCGUUACUAGACUGGGUG,DSCAM,-0.8336
UUCUUAUCGUGUAUUGAGG,GZF1,0.3892
UACUCAACAUCUUAACACC,RFWD3,0.2906
UUCUCUUCCAGCGAAGCUG,SPATA33,0.09526
AAAACGGACACCGUAGUGG,WNT2B,-0.544
UUCGCUAGAAAACUCUUCU,POU2F2,-0.03073
UCCAUAUACAGCAACCACC,KCTD9,0.6668
AAAGUUGGUAUCAACGAGG,FCF1,1.534
UUGUGAUCUCGAUAGUAGC,NDST3,0.3916
UGAGAGUUCAGGUGUCUGC,FRMPD2,0.1479
AAAAUUGAGUGGAUGAUGC,ANTXR1,0.4199
AAAUCUAGUAUUUUGAUAG,LOC145845,0.5007
UUAACUUCAAUGGUGCGUC,MRPL32,0.5289
UGUGAUACAACGACGAGCC,BMPR1A,-0.9628
UUCUCGGUGAUGUAUCUCC,ELMO3,0.9089
UUCUUAUACUUCAUGUCUG,TCEA2,-0.02254
UCAGCUCCAACUUAGGUAC,TRPT1,0.5702
UAUCGAACUGCAACGACUG,GOLGA3,1.356
UUCUCAACCUGUUUCUCAU,C12orf73,0.2904
AUGAUUUCUACUACCACUG,THUMPD1,0.2597
UCAGUAUUCAUUGCUCUUC,DYX1C1,0.1612
AUAAUCUAAAGCAUAGUCG,MAS1,0.4025
AAACCAAACAGCUCCAGUC,CLEC4G,-0.04822
AUAUCUUACACUUAUGAGG,ZNF799,-0.6111
UUCUCGUUUAUGCACAGCC,GTF2E1,-0.7594
UUCGAUCUCCAAAAGAUGC,TC2N,-0.04374
UGGUGGAUAAGUGUCGCUG,OR6K3,-0.9103
AGAGCGUAAAACAUCAGGC,TMEM140,-0.3597
AAAACGACUGGGUCCUUUC,PRTG,0.3098
AUUGUAACUAAAAACCUUG,ZNF480,-0.2962
AACUCAUAAACUGCCUCGC,CACNA1G,-0.2849
AUUAGUAUAAUGAUCAAGG,GLYATL3,-0.2212
AUCAGAUUCAGGAAGUUUG,POLD3,0.3174
UAGACCACCAGGUAGUAGC,SLC19A1,0.8823
UCUGUCAGACGAUUCAUGC,CA7,0.09468
UACGAUAAAGUACAGAGCC,FAM76B,-0.3517
UCGGGUUUCAGUUCCUCAG,EXOC3L4,0.7377
AAUUCCACAAAUAAGGAGG,SLC35F1,0.9371
UAUGUUAGCAUUUAGACUA,EYS,0.1282
UUGAGUAGUACACUCUUGC,WTAP,1.516
UUAUGAUCCAGAUUAAGGC,PLOD3,-0.4055
UGAAGUACUGAUGUUCAGC,MAPK7,0.738

The first 6 entries again:

- AGAGUGAUAGCUGAAGGUC against ZNF80 : seed-corrected z-score 0.8666
- AAGGUCACAAUCUCACAGG against FAM19A5 : seed-corrected z-score 0.7224
- UUGUUGUCUUUUAACAUUC against CLINT1 : seed-corrected z-score 0.1306
- AUUGUUAAAUACCAGUUGC against ZDHHC19 : seed-corrected z-score 0.6938
- UCUGCUAUCGAUGACGUGC against FRMD8 : seed-corrected z-score 0.4401
- UAUGCGUCUAUGAAGGGCA against UPB1 : seed-corrected z-score 0.2854

From PubChem BioAssay record AID1159506 (NCATS, 2015).